Source: PubChem BioAssay AID1259254 (NCATS, 2017)
The whole screen tested about 59,000 reagents; this is a random part of them. Of all reagents, about 1,550 (2.6%) are marked active. 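G2 share is only a proxy for re-replication; each gene was hit by three separate siRNAs, and active genes were retested.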 Raw values are not corrected between plates. The numbers tell different reagents against one gene apart. Not given: the amount of reagent.

Screen: 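Genome-wide screen for genes that prevent DNA re-replication in cancer cells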 (primary screen)
System: human HCT116 colorectal cancer cells
Reagent: single siRNA against human genes
Time to read-out: 3 days
Measurement: 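Nuclei stained with Hoechst and imaged; cell-cycle phase assigned by DNA content; G2 share scaled per plate, non-targeting siRNA 0%, GMNN siRNA 100%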
Direction: G2 robust z-score and G2 cells, % of GMNN control: higher = more G2 cells, more excess DNA replication; raw share of cells in G2: higher = larger share of cells with G2 DNA content
Rule for the call: 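An siRNA counts as active if its G2 robust z-score lies at least 5 MADs above the screen median; here such calls match roughly 38% of GMNN control or more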

gene symbol,reagent,G2 robust z-score,"G2 cells, % of GMNN control",raw share of cells in G2 (%),call
NR1H4 (nuclear receptor subfamily 1 group H member 4),1,4.63,35.6,17.6,inactive
NR1H4 (nuclear receptor subfamily 1 group H member 4),2,0.661,7.62,6.48,inactive
NR1H4 (nuclear receptor subfamily 1 group H member 4),3,0.161,4.1,5.95,inactive
SERPINB6 (serpin family B member 6),1,1.15,11.1,6.82,inactive
SERPINB6 (serpin family B member 6),2,-0.601,-1.26,4.39,inactive
SERPINB6 (serpin family B member 6),3,-0.644,-1.57,3.83,inactive
BEND3 (BEN domain containing 3),1,-0.918,-3.49,2.97,inactive
BEND3 (BEN domain containing 3),2,0.749,8.24,8.4,inactive
BEND3 (BEN domain containing 3),3,-0.79,-2.59,2.21,inactive
PRH1 (proline rich protein HaeIII subfamily 1),1,4.17,32.3,18.7,inactive
PRH1 (proline rich protein HaeIII subfamily 1),2,-0.0152,2.86,5.35,inactive
PRH1 (proline rich protein HaeIII subfamily 1),3,-0.243,1.26,3.81,inactive
SERINC5 (serine incorporator 5),1,-0.454,-0.229,3.49,inactive
SERINC5 (serine incorporator 5),2,2.84,22.9,11,inactive
SERINC5 (serine incorporator 5),3,0.136,3.93,4.45,inactive
FERMT2 (FERM domain containing kindlin 2),1,3.09,24.7,14.7,inactive
FERMT2 (FERM domain containing kindlin 2),2,0.0227,3.13,5.43,inactive
FERMT2 (FERM domain containing kindlin 2),3,7.38,54.9,23.7,active
CACNA2D4,1,0.193,4.33,6.86,inactive
CACNA2D4,2,1.05,10.4,8.29,inactive
CACNA2D4,3,-0.615,-1.36,3.84,inactive
ZBTB18 (zinc finger and BTB domain containing 18),1,2.29,19,14,inactive
ZBTB18 (zinc finger and BTB domain containing 18),2,-1.51,-7.65,2.37,inactive
ZBTB18 (zinc finger and BTB domain containing 18),3,-0.783,-2.54,3.02,inactive
CLSPN (claspin),1,-0.0693,2.48,5.66,inactive
CLSPN (claspin),2,0.325,5.25,6.96,inactive
CLSPN (claspin),3,-0.985,-3.96,1.65,inactive
OR1C1 (olfactory receptor family 1 subfamily C member 1),1,2.4,19.8,11.9,inactive
OR1C1 (olfactory receptor family 1 subfamily C member 1),2,0.263,4.82,6.03,inactive
OR1C1 (olfactory receptor family 1 subfamily C member 1),3,-0.433,-0.0801,3.27,inactive
ZNF169 (zinc finger protein 169),1,-0.436,-0.103,3.06,inactive
ZNF169 (zinc finger protein 169),2,0.236,4.63,4.77,inactive
ZNF169 (zinc finger protein 169),3,-0.313,0.765,3.79,inactive
AOX1 (aldehyde oxidase 1),1,-0.432,-0.0707,5.57,inactive
AOX1 (aldehyde oxidase 1),2,-0.706,-2,4.46,inactive
AOX1 (aldehyde oxidase 1),3,-0.13,2.05,4.34,inactive
PLIN3 (perilipin 3),1,-0.616,-1.37,4.71,inactive
PLIN3 (perilipin 3),2,0.44,6.06,6.47,inactive
PLIN3 (perilipin 3),3,1.51,13.6,8.35,inactive
GATA4 (GATA binding protein 4),1,0.229,4.58,5.28,inactive
GATA4 (GATA binding protein 4),2,0.00413,3,6.25,inactive
GATA4 (GATA binding protein 4),3,-0.7,-1.96,2.4,inactive
NFKBIE (NFKB inhibitor epsilon),1,-0.127,2.08,6.29,inactive
NFKBIE (NFKB inhibitor epsilon),2,-0.934,-3.61,2.01,inactive
NFKBIE (NFKB inhibitor epsilon),3,-0.291,0.923,5.72,inactive
FMNL3 (formin like 3),1,1.06,10.4,10.5,inactive
FMNL3 (formin like 3),2,-1.3,-6.21,2.3,inactive
FMNL3 (formin like 3),3,1.08,10.6,8.48,inactive
METAP1 (methionyl aminopeptidase 1),1,-0.16,1.84,6.2,inactive
METAP1 (methionyl aminopeptidase 1),2,1.93,16.5,10.8,inactive
METAP1 (methionyl aminopeptidase 1),3,-0.35,0.504,4.1,inactive
IQCF5 (IQ motif containing F5),1,-0.598,-1.24,4.1,inactive
IQCF5 (IQ motif containing F5),2,-0.393,0.202,3.84,inactive
IQCF5 (IQ motif containing F5),3,-0.565,-1.01,2.97,inactive
ERGIC2 (ERGIC and golgi 2),1,-0.701,-1.97,2.9,inactive
ERGIC2 (ERGIC and golgi 2),2,1.46,13.2,9.85,inactive
ERGIC2 (ERGIC and golgi 2),3,0.98,9.87,6.45,inactive
ULK2 (unc-51 like autophagy activating kinase 2),1,0.835,8.85,8.34,inactive
ULK2 (unc-51 like autophagy activating kinase 2),2,-0.698,-1.94,4.48,inactive
ULK2 (unc-51 like autophagy activating kinase 2),3,3.02,24.2,11.4,inactive
PCDHB16 (protocadherin beta 16),1,-0.581,-1.12,5.18,inactive
PCDHB16 (protocadherin beta 16),2,5.81,43.9,19.9,active
PCDHB16 (protocadherin beta 16),3,1.79,15.5,9.87,inactive
TRIM68 (tripartite motif containing 68),1,0.318,5.2,8.71,inactive
TRIM68 (tripartite motif containing 68),2,0.606,7.23,7.03,inactive
TRIM68 (tripartite motif containing 68),3,-0.189,1.64,5.02,inactive
POLQ (DNA polymerase theta),1,0.15,4.02,5.14,inactive
POLQ (DNA polymerase theta),2,-0.839,-2.94,4.42,inactive
POLQ (DNA polymerase theta),3,-0.552,-0.917,6.12,inactive

Limited to “raw share of cells in G2 (%)”, for 8 of the entries above:
IQCF5 (IQ motif containing F5) #1: 4.1
IQCF5 (IQ motif containing F5) #2: 3.84
IQCF5 (IQ motif containing F5) #3: 2.97
ERGIC2 (ERGIC and golgi 2) #1: 2.9
ERGIC2 (ERGIC and golgi 2) #2: 9.85
ERGIC2 (ERGIC and golgi 2) #3: 6.45
ULK2 (unc-51 like autophagy activating kinase 2) #1: 8.34
ULK2 (unc-51 like autophagy activating kinase 2) #2: 4.48
